No constants are given. Whether binding was seen depends on the method and setting. In cells and extracts the contact can be indirect. For some assays here: Binding can be weak; no strength is given. Sequences can lack the tags named with a protein.
What was measured:
[1] = biological target: cYFP-KIN10 (KIN10 fused to the C-terminal half of YFP) (Arabidopsis) (UniProt Q38997); assay: split reporter; BiFC (split YFP), transient co-expression in Nicotiana benthamiana leaf epidermal cells under a DEX-inducible promoter; leaves treated with DEX and 20 μg/ml antimycin A
[2] = biological target: cYFP-KIN10 (KIN10 fused to the C-terminal half of YFP) (Arabidopsis) (UniProt Q38997); assay: split reporter; BiFC (split YFP), transient co-expression in Nicotiana benthamiana leaf epidermal cells under a DEX-inducible promoter; normal conditions: DEX and DMSO, no antimycin A

Sequences of proteins named here, by UniProt entry; tags and fusion partners are left off. A change or cut given only in a name is not applied to a line headed by its entry.
UniProt Q38997: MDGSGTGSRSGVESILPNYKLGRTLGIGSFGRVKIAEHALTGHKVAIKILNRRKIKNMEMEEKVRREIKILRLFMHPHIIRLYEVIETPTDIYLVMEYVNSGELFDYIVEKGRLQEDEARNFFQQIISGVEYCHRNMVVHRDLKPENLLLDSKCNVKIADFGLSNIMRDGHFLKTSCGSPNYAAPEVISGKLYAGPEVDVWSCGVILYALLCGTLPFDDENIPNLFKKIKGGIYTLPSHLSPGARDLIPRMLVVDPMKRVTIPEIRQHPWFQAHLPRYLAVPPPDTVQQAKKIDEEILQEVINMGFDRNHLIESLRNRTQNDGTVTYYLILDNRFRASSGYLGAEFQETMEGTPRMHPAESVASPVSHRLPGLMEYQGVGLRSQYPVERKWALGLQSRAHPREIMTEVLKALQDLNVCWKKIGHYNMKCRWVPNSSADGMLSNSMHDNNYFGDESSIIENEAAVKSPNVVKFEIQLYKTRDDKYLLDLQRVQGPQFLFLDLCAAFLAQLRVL

- binding [1]: binds
B1: nYFP-SOG1 (SOG1 fused to the N-terminal half of yellow fluorescent protein) (protein, UniProt Q6NQK2 1-449)
chain: MAGRSWLIDSNRIATKIMSASASSDPRQVVWKSNPSRHCPKCQHVIDNSDVVDDWPGLPRGVKFDPSDPEIIWHLLAKSGLSGLSSHPFIDEFIPTVNQDDGICYTHPKNLPGVKSDGTVSHFFHKAIKAYSTGTRKRRKIHDDDFGDVRWHKTGRTKPVVLDGVQRGCKKIMVLYGGKAVKTNWVMHQYHLGIEEDEKEGDYVVSKIFYQQPQQLVVKRGDKAEQEVSEDIFAAVTPTADPVTPKLATPEPRNAVRICSDSHIASDYVTPSDYVSAHEVSLAETSEVMCMEDEVQSIQPNHERPSSGPELEHGLENGAKEMLDDKEEQEKDRDNENQGEEDPTWFDSGSQFILNSQQLVEALSLCDDLLGSQDREENTNSGSLKDKQPCIADYAHLGPEDFKRDLEECQKIVLDPSNIELDTPPEFRLSQLEFGSQDSFLAWGTGKTD
- binding [2]: no binding (only without antimycin A (DEX and DMSO))
